The other results are listed elsewhere or left out.
Compound: CC1Cc2ccccc2N1C(=O)C1CCCN(C1)C(=O)CCl (mixture of isomers) [TRIM25 ligand 11 (diastereomer mixture)]
Assay: probe-labelled cysteine peptide fold change vs DMSO (competition) (log2 fold change); higher = less target engagement (more negative = stronger competition)
Conditions: THP-1, incubation time: 4 h
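Further: competitive chemoproteomic profiling in live THP-1 cells with an iodoacetamide desthiobiotin (IA-DTB) probe, comparing probe-labelled peptide intensities in compound-treated cells against DMSO-treated controls.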

The chains behind the UniProt entries cited, without tags or fusion partners. Where a name states a change or a piece, a line headed by the entry shows the natural chain unless it says otherwise.
UniProt Q6PIJ6: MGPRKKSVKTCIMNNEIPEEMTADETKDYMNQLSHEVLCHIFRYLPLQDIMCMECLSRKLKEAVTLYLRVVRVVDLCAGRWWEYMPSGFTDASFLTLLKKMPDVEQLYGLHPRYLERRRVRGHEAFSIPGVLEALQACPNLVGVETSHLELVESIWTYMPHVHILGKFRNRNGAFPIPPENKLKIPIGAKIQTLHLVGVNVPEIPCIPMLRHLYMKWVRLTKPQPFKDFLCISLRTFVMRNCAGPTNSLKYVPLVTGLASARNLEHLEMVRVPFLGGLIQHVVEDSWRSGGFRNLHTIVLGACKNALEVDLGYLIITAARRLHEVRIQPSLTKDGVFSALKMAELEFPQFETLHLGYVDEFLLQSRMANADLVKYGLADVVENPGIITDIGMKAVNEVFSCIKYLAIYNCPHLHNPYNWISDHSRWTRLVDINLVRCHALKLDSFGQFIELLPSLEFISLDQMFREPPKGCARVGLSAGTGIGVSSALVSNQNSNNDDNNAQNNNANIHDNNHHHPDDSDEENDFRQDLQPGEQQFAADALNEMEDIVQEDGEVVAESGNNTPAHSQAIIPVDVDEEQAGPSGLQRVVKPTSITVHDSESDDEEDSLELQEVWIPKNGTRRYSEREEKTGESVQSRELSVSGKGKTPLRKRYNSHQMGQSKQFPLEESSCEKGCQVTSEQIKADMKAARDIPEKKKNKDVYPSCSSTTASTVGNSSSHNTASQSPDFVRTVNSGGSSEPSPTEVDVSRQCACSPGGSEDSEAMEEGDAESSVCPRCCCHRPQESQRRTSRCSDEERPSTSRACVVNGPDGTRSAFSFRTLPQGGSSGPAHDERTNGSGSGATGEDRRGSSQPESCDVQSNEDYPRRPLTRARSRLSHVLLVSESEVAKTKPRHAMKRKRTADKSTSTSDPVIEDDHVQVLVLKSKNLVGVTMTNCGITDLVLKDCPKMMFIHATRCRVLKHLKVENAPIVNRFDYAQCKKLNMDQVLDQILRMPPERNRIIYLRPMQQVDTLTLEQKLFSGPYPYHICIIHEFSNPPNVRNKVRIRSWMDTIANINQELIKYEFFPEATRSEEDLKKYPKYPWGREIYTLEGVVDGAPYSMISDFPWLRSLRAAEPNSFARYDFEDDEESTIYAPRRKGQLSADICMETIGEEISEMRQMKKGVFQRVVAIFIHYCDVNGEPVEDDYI
UniProt Q9UK61: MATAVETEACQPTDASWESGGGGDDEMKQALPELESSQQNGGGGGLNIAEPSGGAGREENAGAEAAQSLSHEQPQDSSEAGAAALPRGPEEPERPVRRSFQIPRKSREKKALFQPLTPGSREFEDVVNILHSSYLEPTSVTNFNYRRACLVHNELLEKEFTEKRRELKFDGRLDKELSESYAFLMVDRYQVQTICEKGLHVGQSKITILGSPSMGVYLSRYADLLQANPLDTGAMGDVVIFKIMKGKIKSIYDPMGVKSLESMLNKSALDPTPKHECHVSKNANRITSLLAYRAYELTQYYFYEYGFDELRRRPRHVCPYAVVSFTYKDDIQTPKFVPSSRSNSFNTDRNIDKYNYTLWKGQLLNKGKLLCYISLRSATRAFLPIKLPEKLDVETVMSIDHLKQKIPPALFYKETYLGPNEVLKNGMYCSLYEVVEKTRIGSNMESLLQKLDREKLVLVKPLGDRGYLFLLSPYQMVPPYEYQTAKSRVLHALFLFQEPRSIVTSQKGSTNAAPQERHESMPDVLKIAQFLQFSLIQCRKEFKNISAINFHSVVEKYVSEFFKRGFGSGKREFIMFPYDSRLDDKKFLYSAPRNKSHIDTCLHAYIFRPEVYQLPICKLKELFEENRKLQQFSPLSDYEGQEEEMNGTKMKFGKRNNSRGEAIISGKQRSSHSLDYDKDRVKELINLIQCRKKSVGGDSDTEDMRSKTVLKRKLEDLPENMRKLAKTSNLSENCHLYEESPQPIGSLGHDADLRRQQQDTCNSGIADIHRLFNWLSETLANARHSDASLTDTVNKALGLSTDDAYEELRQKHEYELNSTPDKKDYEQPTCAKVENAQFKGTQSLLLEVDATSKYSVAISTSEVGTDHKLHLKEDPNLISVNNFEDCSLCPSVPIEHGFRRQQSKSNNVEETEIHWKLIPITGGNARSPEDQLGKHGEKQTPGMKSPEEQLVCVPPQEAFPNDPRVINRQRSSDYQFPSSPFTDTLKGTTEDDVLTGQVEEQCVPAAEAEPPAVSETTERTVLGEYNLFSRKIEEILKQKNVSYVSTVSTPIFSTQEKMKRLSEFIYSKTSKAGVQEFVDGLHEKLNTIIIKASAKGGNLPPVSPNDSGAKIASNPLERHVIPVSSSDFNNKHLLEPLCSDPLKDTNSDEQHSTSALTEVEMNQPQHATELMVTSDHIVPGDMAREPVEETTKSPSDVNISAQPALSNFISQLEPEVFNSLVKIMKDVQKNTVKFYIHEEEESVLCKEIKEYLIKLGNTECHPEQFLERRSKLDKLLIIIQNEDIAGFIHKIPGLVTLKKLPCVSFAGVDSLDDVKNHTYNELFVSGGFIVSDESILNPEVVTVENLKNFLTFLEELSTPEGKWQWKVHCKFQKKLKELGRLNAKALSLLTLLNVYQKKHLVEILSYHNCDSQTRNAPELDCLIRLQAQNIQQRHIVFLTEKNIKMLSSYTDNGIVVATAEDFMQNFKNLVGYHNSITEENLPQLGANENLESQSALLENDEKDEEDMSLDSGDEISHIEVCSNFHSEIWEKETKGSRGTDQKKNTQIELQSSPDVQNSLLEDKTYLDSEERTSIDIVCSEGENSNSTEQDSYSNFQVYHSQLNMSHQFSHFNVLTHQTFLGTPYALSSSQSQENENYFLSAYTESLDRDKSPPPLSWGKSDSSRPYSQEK
UniProt P55899: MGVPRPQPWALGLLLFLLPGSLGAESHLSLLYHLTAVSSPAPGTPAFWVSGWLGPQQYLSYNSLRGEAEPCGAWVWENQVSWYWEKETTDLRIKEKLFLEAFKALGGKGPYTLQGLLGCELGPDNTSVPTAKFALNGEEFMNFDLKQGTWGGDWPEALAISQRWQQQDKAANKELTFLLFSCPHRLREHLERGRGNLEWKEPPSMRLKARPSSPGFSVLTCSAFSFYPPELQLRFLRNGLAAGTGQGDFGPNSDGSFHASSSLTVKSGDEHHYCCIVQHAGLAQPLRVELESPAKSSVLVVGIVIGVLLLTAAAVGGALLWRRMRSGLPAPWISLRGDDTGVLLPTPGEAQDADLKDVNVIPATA
UniProt Q53R41: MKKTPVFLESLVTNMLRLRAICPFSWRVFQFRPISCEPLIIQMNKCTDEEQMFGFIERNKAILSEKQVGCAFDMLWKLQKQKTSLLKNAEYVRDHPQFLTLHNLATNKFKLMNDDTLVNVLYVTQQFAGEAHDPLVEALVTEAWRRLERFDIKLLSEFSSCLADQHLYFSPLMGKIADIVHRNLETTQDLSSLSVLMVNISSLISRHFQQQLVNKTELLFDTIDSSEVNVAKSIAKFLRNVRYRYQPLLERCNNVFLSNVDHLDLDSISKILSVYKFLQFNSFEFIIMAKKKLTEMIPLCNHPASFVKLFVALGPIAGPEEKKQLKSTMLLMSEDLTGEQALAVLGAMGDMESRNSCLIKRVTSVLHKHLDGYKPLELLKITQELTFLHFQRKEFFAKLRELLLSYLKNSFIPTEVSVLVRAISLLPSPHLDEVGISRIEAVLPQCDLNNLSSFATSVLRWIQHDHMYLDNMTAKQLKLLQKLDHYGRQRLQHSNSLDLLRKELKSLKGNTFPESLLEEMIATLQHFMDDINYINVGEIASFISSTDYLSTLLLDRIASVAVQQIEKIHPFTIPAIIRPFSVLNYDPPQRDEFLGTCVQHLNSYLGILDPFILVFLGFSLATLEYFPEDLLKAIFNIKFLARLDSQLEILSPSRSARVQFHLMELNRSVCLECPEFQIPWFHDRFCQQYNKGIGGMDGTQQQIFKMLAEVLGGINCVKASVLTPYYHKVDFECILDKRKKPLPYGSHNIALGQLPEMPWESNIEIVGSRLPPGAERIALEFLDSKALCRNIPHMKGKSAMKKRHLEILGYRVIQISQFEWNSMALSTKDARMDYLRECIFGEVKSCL
UniProt Q8NFZ0: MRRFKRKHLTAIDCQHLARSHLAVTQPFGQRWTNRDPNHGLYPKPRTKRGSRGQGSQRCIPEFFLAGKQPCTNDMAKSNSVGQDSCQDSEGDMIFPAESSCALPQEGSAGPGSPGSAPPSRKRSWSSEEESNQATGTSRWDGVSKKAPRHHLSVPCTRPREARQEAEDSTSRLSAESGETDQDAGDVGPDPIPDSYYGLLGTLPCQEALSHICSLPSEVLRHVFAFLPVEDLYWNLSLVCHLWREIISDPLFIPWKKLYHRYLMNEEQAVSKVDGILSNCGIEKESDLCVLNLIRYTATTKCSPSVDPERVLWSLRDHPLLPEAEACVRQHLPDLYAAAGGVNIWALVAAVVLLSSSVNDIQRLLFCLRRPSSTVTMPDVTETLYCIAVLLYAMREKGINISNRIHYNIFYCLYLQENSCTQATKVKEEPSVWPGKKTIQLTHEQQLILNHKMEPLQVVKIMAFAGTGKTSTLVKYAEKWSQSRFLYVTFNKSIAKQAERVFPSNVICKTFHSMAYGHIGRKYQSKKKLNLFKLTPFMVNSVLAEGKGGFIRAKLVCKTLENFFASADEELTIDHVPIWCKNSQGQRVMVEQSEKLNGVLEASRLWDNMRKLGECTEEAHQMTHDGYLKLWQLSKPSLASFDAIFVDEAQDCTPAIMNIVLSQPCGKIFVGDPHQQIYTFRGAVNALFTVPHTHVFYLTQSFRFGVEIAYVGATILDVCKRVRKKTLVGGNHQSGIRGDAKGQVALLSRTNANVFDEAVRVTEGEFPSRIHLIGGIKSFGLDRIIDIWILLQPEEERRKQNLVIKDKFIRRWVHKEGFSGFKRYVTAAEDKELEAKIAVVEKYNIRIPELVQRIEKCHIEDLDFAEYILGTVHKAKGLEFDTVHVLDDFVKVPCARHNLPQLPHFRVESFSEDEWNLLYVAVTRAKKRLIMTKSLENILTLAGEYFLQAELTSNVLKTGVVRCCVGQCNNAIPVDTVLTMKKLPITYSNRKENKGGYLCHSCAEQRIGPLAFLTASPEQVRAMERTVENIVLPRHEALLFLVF
UniProt Q9NVI1: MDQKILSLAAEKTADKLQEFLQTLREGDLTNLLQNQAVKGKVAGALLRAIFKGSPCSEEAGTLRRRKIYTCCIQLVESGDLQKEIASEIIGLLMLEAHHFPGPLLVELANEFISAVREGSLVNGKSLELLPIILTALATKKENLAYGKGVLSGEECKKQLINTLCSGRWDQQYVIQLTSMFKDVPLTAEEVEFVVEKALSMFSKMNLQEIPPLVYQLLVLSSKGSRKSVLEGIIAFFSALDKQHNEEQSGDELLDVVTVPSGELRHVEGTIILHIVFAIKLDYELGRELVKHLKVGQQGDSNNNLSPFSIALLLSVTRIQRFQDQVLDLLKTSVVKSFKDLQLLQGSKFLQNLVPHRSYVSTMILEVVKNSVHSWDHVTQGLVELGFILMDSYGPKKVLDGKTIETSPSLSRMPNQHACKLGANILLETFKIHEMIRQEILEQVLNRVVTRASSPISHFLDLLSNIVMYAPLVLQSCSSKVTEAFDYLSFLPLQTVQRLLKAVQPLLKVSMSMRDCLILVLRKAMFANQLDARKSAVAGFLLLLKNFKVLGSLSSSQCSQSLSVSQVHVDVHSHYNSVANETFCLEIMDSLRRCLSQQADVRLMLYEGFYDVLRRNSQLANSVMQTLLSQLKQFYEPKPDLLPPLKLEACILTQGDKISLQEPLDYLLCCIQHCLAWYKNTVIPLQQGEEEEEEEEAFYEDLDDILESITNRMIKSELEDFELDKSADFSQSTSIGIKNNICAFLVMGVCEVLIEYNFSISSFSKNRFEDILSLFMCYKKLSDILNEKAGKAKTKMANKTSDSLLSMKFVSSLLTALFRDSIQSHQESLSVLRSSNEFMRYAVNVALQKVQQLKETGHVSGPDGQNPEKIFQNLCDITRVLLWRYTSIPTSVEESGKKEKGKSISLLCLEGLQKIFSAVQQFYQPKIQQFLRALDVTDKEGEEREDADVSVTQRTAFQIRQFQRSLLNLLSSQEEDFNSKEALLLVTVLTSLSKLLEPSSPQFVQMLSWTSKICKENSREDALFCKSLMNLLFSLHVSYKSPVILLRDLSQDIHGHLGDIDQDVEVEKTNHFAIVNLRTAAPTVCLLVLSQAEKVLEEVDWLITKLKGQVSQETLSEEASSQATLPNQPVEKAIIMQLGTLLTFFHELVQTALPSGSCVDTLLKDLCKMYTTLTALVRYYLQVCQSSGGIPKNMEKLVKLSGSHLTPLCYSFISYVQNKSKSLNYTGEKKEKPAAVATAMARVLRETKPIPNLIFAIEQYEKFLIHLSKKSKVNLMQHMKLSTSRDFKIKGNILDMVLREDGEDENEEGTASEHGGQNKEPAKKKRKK

Target	probe-labelled cysteine peptide fold change (10 µM)	probe-labelled cysteine peptide fold change (50 µM)
FBXO38_Q6PIJ6_39_DYMNQLSHEVLCHIFR (UniProt Q6PIJ6)	-0.0649	0.0174
FAR2_Q96K12_313_STLVYHITSGNMNPCNWHK (UniProt Q96K12)	0.0268	-0.105
FAM208A_Q9UK61_617_SHIDTCLHAYIFRPEVYQLPICK (UniProt Q9UK61)	-0.0112	-0.118
FCGRT_P55899_221_ARPSSPGFSVLTCSAFSFYPPELQLR (UniProt P55899)	-0.148	-0.278
FBXO22_Q8NEZ5_365_KFFPSVPLFGFFGNGEIGCDR (UniProt Q8NEZ5)	-0.147	0.0467
FAM129A_Q9BZQ8_177_HGYFCFHEAADQKR (UniProt Q9BZQ8)	-0.15	-0.0236
FANCF_Q9NPI8_89_GPVPGLANFQALGHCDVLLSLR (UniProt Q9NPI8)	-0.121	0.0984
FBXO38_Q6PIJ6_242_NCAGPTNSLK (UniProt Q6PIJ6)	0.0457	0.232
FASN_P49327_2010+2024_EACPELDYFVVFSSVSCGR (UniProt P49327)	0.54	0.245
FCGRT_P55899_275_SGDEHHYCCIVQHAGLAQPLR (UniProt P55899)	-0.0334	-0.0259
FASN_P49327_1118+1127_FCFTPHTEEGCLSER (UniProt P49327)	0.0556	-0.215
FDPS_P14324_333_CSWLVVQCLQR (UniProt P14324)	-0.00731	-0.0276
FES_P07332_372_QVLQEALQGLQVALCSQAK (UniProt P07332)	0.022	-0.126
FBXO3_Q9UK99_403_FHMACPTFR (UniProt Q9UK99)	-0.0056	-0.132
FASN_P49327_1828_CTVFHGAQVEDAFR (UniProt P49327)	0.0828	0.0378
FBXO30_Q8TB52_592_SFGVQPCVSTVLVEPAR (UniProt Q8TB52)	0.0321	-0.0298
FDXR_P22570_105_CAFWGNVEVGR (UniProt P22570)	0.0353	0.00422
FAM208A_Q9UK61_1245_FYIHEEEESVLCK (UniProt Q9UK61)	0.0966	-0.0668
FAM206A_Q9NX38_37_FCEDHCILQHSNR (UniProt Q9NX38)	-0.0207	0.109
FBXL20_Q96IG2_272_LQSLCASGCSNITDAILNALGQNCPR (UniProt Q96IG2)	0.0683	-0.178
FASTKD1_Q53R41_673_SVCLECPEFQIPWFHDR (UniProt Q53R41)	0.021	0.192

Target	probe-labelled cysteine peptide fold change (10 µM)	probe-labelled cysteine peptide fold change (50 µM)
FAM208A_Q9UK61_830_DYEQPTCAK (UniProt Q9UK61)	0.049	-0.181
FDX1_P10109_155_LGCQICLTK (UniProt P10109)	-0.126	-0.0749
FASN_P49327_2273_LSIPTYGLQCTR (UniProt P49327)	-0.0274	0.0779
FASN_P49327_212_LGMLSPEGTCK (UniProt P49327)	-0.0566	-0.123
FBH1_Q8NFZ0_857_CHIEDLDFAEYILGTVHK (UniProt Q8NFZ0)	0.0964	-0.126
FASTKD1_Q53R41_446_IEAVLPQCDLNNLSSFATSVLR (UniProt Q53R41)	0.105	0.0567
FBH1_Q8NFZ0_580_TLENFFASADEELTIDHVPIWCK (UniProt Q8NFZ0)	0.0226	0.0256
FAM76B_Q5HYJ3_73+76_PCQYCNIIAAFIGTK (UniProt Q5HYJ3)	-0.358	0.0932
FDFT1_P37268_172_YCHYVAGLVGIGLSR (UniProt P37268)	0.0374	0.156
FASN_P49327_1459_AINCATSGVVGLVNCLR (UniProt P49327)	0.0038	0.0169
FBXL20_Q96IG2_351+364_HLGNGACAHDQLEVIELDNCPLITDASLEHLK (UniProt Q96IG2)	0.109	0.00526
FAM192A_Q9GZU8_44_KPEDPEECPEEVYDPR (UniProt Q9GZU8)	-0.0902	-0.146
FECH_P22830_360_ECGVENIR (UniProt P22830)	-0.00363	0.0589
FAM129B_Q96TA1_334_AEVCVR (UniProt Q96TA1)	0.00142	0.0861
FAT1_Q14517_574_INCEGTIPR (UniProt Q14517)	0.237	0.204
FASN_P49327_2468_TGGAYGEDLGADYNLSQVCDGK (UniProt P49327)	-0.0288	-0.123
FDXR_P22570_152_ALEIPGEELPGVCSAR (UniProt P22570)	0.0997	-0.114
FAR1_Q8WVX9_111_EVIIDSTNIIFHCAATVR (UniProt Q8WVX9)	0.259	0.222
FANCI_Q9NVI1_594_CLSQQADVR (UniProt Q9NVI1)	0.118	0.0694
FAM208A_Q9UK61_1138_HLLEPLCSDPLK (UniProt Q9UK61)	0.0102	-0.117
FAM98A_Q8NCA5_126_MLCVNAPPKK (UniProt Q8NCA5)	-0.0255	-0.0926

A different layout for some results above.
Target | probe-labelled cysteine peptide fold change (10 µM) | probe-labelled cysteine peptide fold change (50 µM)
FASN_P49327_212_LGMLSPEGTCK (UniProt P49327) | -0.0566 | -0.123
FANCI_Q9NVI1_594_CLSQQADVR (UniProt Q9NVI1) | 0.118 | 0.0694
FAM98A_Q8NCA5_126_MLCVNAPPKK (UniProt Q8NCA5) | -0.0255 | -0.0926

Reference: the supplement of paper PMC12067093, “Discovery and optimisation of a covalent ligand for TRIM25 and its application to targeted protein ubiquitination” (Chemical Science, 2025)
